PMC12847959
These are yes or no findings as the source states them, for the method shown. In cells and extracts the contact can be indirect. Some results given as binding are weak or reduced against the parent protein; the word gives no strength.

Sequences of proteins named here, by UniProt entry; tags and fusion partners are left off.
UniProt P09936: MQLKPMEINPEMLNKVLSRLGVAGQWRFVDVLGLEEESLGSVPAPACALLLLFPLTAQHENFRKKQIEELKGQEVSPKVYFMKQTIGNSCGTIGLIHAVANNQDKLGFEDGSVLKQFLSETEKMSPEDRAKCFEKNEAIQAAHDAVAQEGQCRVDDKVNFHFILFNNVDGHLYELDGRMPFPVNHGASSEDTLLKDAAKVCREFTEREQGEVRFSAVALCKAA
UniProt Q15672: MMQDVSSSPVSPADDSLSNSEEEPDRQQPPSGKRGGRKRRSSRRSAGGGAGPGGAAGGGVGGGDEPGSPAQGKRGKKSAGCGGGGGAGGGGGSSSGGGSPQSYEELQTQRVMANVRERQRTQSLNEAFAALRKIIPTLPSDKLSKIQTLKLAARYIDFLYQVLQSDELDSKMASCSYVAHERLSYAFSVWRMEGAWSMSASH

Molecular target: ubiquitin C-terminal hydrolase L1 (UCHL1) (human (endogenous in A549 and H1299)) (UniProt P09936)
Assay: co-IP; endogenous proteins in A549 and H1299 lysates; IP with control IgG, anti-UCHL1 and anti-Twist1 antibodies, Protein A/G agarose; lysis in 50 mM Tris-HCl pH 8.0, 150 mM NaCl, 1% NP-40; 4 °C

Twist1 (from UniProt Q15672 1-202)
binding: binds
